Data on 16 compounds can be found in PubChem BioAssay AID248 (DTP/NCI, 2004).

The list shows only some results of the screen, not a fair sample: it is rich in T/C values a quarter to a half above the control, in often repeated tests (any T/C) and in doses without a T/C. Other doses and runs of a compound stand elsewhere. T/C gives the treated animals as a percentage of the vehicle group. Some doses have a count of surviving animals in place of a T/C: the source files T/C as zero there, which appears to mark a toxic dose or a test without result, not a measured value. Some doses without a T/C left all or most animals alive at the check, yet need not have been tolerated: survival well below the control is almost never listed, so the zero probably covers shortened survival too. Survivors were counted at the toxicity check, usually on the fifth day, unless a day is given; later deaths do not show. Schedule codes are those of the source, taken here to give the interval after Q, in days (D) or hours (H), and the number of doses after X. Some molecules as drawn cover several salts, stereoisomers or complexes of the source; a dose is that of the sample tested. Marks such as (2×) give the number of equal values in this list. Some doses were run more than once; their values stand side by side, smallest first. Where survival is the endpoint, this PubChem deposit counts one and a half times the control or more as active, and values a quarter to a half above the control carry no call in these data; other NCI protocols may use other cut-offs. Some T/C values are followed by the survivors on the day toxicity was checked, most often the fifth; where none is given, no animal had died by that day.

The test relates to L1210 leukemia ip in BDF1 mice, survival T/C. The experiment in a line: NCI In Vivo Anticancer Drug Screen. Data for tumor model L1210 Leukemia (intraperitoneal) in B6D2F1 (BDF1) mice. The note with it: T/C endpoint: mean survival time, higher T/C = longer survival.
[1] abbreviates: dose: 50.0 mg/kg/injection, schedule: Q01DX001 (ip), vehicle: saline.
[2] abbreviates: dose: 100.0 mg/kg/injection, schedule: Q01DX001 (ip), vehicle: saline.
The mark [3] stands for this setting: dose: 200.0 mg/kg/injection, schedule: Q01DX001 (ip), vehicle: saline.
Where [4] appears, read: dose: 400.0 mg/kg/injection, schedule: Q01DX001 (ip), vehicle: saline.
[5] abbreviates: dose: 50.0 mg/kg/injection, schedule: Q01DX009 (ip), vehicle: saline with Tween-80.
[6] abbreviates: dose: 50.0 mg/kg/injection, schedule: Q01DX009 (ip), vehicle: saline.
Where [7] appears, read: dose: 100.0 mg/kg/injection, schedule: Q01DX009 (ip), vehicle: saline with Tween-80.
[8] abbreviates: dose: 200.0 mg/kg/injection, schedule: Q04DX003 (ip), vehicle: saline with Tween-80.
The mark [9] stands for this setting: dose: 400.0 mg/kg/injection, schedule: Q01DX009 (ip), vehicle: Klucel (hydroxypropylcellulose) (HPC).

On to `COc1ccc2nonc2c1`, for which the survivor count (dose: 400.0 mg/kg/injection, schedule: Q01DX001 (ip), vehicle: other) was 0 of 3.
For the compound `CC[N+](CC)(CC)CCOc1cccc(OCC[N+](CC)(CC)CC)c1OCC[N+](CC)(CC)CC`, the survivor count is, setting by setting: (dose: 20.0 mg/kg/injection, schedule: Q01DX001 (ip), vehicle: saline) 0 of 6; (dose: 40.0 mg/kg/injection, schedule: Q01DX001 (ip), vehicle: saline) 0 of 6; under setting [1], 0 of 4; (dose: 80.0 mg/kg/injection, schedule: Q01DX001 (ip), vehicle: saline) 0 of 6; under setting [2], 0 of 4; under setting [3], 0 of 4. Also, the survivor count under setting [4] is listed as 0 of 4.
For the compound `Cc1ccc2nc(Cl)cc(=O)n2c1`, the survivor count under setting [4] was 2 of 4.
Take `CC1C(=O)OC2C1CCC1(C)C=CC(=O)C(C)C21` (stereo unspecified): the survivor count (dose: 300.0 mg/kg/injection, schedule: Q01DX001 (ip), vehicle: saline) is on record as 1 of 6.
With `[Br][Hg][c]1ccccc1`, the survivor count is given as 0 of 6 (dose: 150.0 mg/kg/injection, schedule: Q01DX001 (ip), vehicle: carboxymethylcellulose (CMC)) and 0 of 6 (dose: 300.0 mg/kg/injection, schedule: Q01DX001 (ip), vehicle: carboxymethylcellulose (CMC)).
With `Cc1cc(N(CCOS(C)(=O)=O)CCOS(C)(=O)=O)ccc1C=Nc1ccc(-c2csc(-c3ccccc3)n2)c(Cl)c1`, the T/C runs as follows: (dose: 26.6 mg/kg/injection, schedule: Q04DX003 (ip), vehicle: Klucel (hydroxypropylcellulose) (HPC)) 125 % of control; (dose: 40.0 mg/kg/injection, schedule: Q04DX003 (ip), vehicle: Klucel (hydroxypropylcellulose) (HPC)) 127 and 136 % of control. Besides, the survivor count is 6 of 6 (dose: 200.0 mg/kg/injection, schedule: Q04DX003 (ip), vehicle: Klucel (hydroxypropylcellulose) (HPC)) and 6 of 6 (dose: 400.0 mg/kg/injection, schedule: Q04DX003 (ip), vehicle: Klucel (hydroxypropylcellulose) (HPC)).
With `CN(C)C(C#N)C(=O)c1ccc(Cl)cc1` (stereo unspecified), the survivor count under setting [4] is 0 of 6.
For `CC/C=C(/C#N)CC`, where the note is “dose: 400.0 mg/kg/injection, schedule: Q04DX002 (ip), vehicle: saline with Tween-80”, the survivor count is 1 of 3.
With `CN1CCN(CCCN2c3ccccc3Sc3ccc(C(F)(F)F)cc32)CC1`, the survivor count was 6 of 6 (dose: 12.5 mg/kg/injection, schedule: Q01DX009 (ip), vehicle: saline); 2 of 6 and 6 of 6 (dose: 25.0 mg/kg/injection, schedule: Q01DX009 (ip), vehicle: saline); 3 of 6 (dose: 33.0 mg/kg/injection, schedule: Q01DX009 (ip), vehicle: saline with Tween-80); 3 of 6 (dose: 37.5 mg/kg/injection, schedule: Q01DX009 (ip), vehicle: saline); 1 of 6 under setting [5]; 2 of 6, 4 of 6, 6 of 6 under setting [6]. The survivor count is 0 of 6 (dose: 75.0 mg/kg/injection, schedule: Q01DX009 (ip), vehicle: saline with Tween-80); 1 of 6 (dose: 75.0 mg/kg/injection, schedule: Q01DX009 (ip), vehicle: saline); 6 of 6 under setting [7]; 0 of 6, 1 of 6, 2 of 6 (dose: 100.0 mg/kg/injection, schedule: Q01DX009 (ip), vehicle: saline); 3 of 4 (dose: 100.0 mg/kg/injection, schedule: Q04DX003 (ip), vehicle: saline); 0 of 6 (2×) (dose: 150.0 mg/kg/injection, schedule: Q01DX009 (ip), vehicle: saline). Also, the survivor count reads like this: (dose: 150.0 mg/kg/injection, schedule: Q04DX003 (ip), vehicle: saline with Tween-80) 2 of 6 and 3 of 6; (dose: 150.0 mg/kg/injection, schedule: Q04DX003 (ip), vehicle: saline) 5 of 6 (2×); under setting [3], 0 of 6; under setting [8], 3 of 6 and 4 of 6; (dose: 200.0 mg/kg/injection, schedule: Q04DX003 (ip), vehicle: saline) 0 of 4, 1 of 6, 2 of 6; (dose: 225.0 mg/kg/injection, schedule: Q01DX009 (ip), vehicle: saline) 0 of 6. Besides, the survivor count by setting is: (dose: 230.0 mg/kg/injection, schedule: Q04DX003 (ip), vehicle: saline) 3 of 6; (dose: 345.0 mg/kg/injection, schedule: Q04DX003 (ip), vehicle: saline) 0 of 6; under setting [4], 0 of 6; (dose: 400.0 mg/kg/injection, schedule: Q04DX003 (ip), vehicle: saline with Tween-80) 0 of 6 (2×); (dose: 400.0 mg/kg/injection, schedule: Q04DX003 (ip), vehicle: saline) 0 of 6 (2×); (dose: 600.0 mg/kg/injection, schedule: Q04DX003 (ip), vehicle: saline) 0 of 6. In addition, the T/C is 143 % of control (dose: 22.0 mg/kg/injection, schedule: Q01DX009 (ip), vehicle: saline with Tween-80); 127 and 137 % of control (dose: 37.0 mg/kg/injection, schedule: Q04DX003 (ip), vehicle: saline with Tween-80); 136 % of control (dose: 44.0 mg/kg/injection, schedule: Q04DX003 (ip), vehicle: saline with Tween-80); 138 % of control [4 of 6 alive] under setting [5]; 130 % of control [4 of 6 alive] under setting [6]; 142 % of control (dose: 66.0 mg/kg/injection, schedule: Q04DX003 (ip), vehicle: saline with Tween-80). Besides, the T/C (dose: 100.0 mg/kg/injection, schedule: Q04DX003 (ip), vehicle: saline with Tween-80) is 129 and 141 % of control.
Consider `CCCCN1C(=O)c2cccnc2C1=O`, for which the survivor count under setting [8] was 6 of 6.
As to `CC(C)n1cc2c(N)ncnc2n1`, where the note is “dose: 200.0 mg/kg/injection, schedule: Q01DX009 (ip), vehicle: saline”, the survivor count is recorded as 6 of 6.
Consider `CCCCN(C)N=Nc1ccc([N+](=O)[O-])cc1C(N)=O`, for which the T/C reads like this: under setting [7], 130 % of control; (dose: 176.0 mg/kg/injection, schedule: Q01DX009 (ip), vehicle: saline with Tween-80) 141 % of control.
With `Cc1nc(NCc2ccccc2)c2cc[nH]c2n1`, the survivor count runs as follows: under setting [1], 0 of 4; (dose: 50.0 mg/kg/injection, schedule: Q01DX009 (ip), vehicle: Klucel (hydroxypropylcellulose) (HPC)) 5 of 6; (dose: 50.0 mg/kg/injection, schedule: Q04DX003 (ip), vehicle: Klucel (hydroxypropylcellulose) (HPC)) 2 of 4; under setting [2], 0 of 4; (dose: 100.0 mg/kg/injection, schedule: Q01DX009 (ip), vehicle: Klucel (hydroxypropylcellulose) (HPC)) 0 of 6; under setting [3], 0 of 4. The survivor count was 0 of 6 (dose: 200.0 mg/kg/injection, schedule: Q01DX009 (ip), vehicle: Klucel (hydroxypropylcellulose) (HPC)); 0 of 4 under setting [4]; 0 of 6 under setting [9].
With `CCOC(=O)c1ccc(NC(=O)Nc2cccc(F)c2)cc1`, the survivor count under setting [9] is on record as 2 of 3.
Turning to `CNCCOC`, the survivor count (dose: 200.0 mg/kg/injection, schedule: Q04DX002 (ip), vehicle: saline) is 1 of 3 and the survivor count (dose: 400.0 mg/kg/injection, schedule: Q04DX002 (ip), vehicle: saline) is 0 of 3.
Turning to `O=C1CSC(=S)N1c1ccco1`, the survivor count (dose: 400.0 mg/kg/injection, schedule: Q01DX009 (ip), vehicle: saline) is on record as 3 of 6.
